Data published in publication PMC3841102, “Activation of Smurf E3 Ligase Promoted by Smoothened Regulates Hedgehog Signaling through Targeting Patched Turnover” (PLoS Biology, 2013).
No constants are given. Whether binding was seen depends on the method and setting. In cells and extracts the contact can be indirect. Some entries that bind do so weakly or less than the wild type. For some assays here: Tags and fused reporters may be left off the sequences shown. Each block holds one binder with its values, some of them ahead of it.

Key:
[1] = molecular target: T1, Myc-tagged Ptc (full-length Patched) (Drosophila) (UniProt P18502); test: co-IP; transfected S2 cells, lysates after 48 h; anti-Flag M2 affinity gel or anti-Myc affinity gel; NaCl adjusted to 500 mM, washes with 500 mM NaCl; Western blot; for Smo with Smurf (Figure 5C,D) cells treated with Hh medium for 12 h
T1 sequence: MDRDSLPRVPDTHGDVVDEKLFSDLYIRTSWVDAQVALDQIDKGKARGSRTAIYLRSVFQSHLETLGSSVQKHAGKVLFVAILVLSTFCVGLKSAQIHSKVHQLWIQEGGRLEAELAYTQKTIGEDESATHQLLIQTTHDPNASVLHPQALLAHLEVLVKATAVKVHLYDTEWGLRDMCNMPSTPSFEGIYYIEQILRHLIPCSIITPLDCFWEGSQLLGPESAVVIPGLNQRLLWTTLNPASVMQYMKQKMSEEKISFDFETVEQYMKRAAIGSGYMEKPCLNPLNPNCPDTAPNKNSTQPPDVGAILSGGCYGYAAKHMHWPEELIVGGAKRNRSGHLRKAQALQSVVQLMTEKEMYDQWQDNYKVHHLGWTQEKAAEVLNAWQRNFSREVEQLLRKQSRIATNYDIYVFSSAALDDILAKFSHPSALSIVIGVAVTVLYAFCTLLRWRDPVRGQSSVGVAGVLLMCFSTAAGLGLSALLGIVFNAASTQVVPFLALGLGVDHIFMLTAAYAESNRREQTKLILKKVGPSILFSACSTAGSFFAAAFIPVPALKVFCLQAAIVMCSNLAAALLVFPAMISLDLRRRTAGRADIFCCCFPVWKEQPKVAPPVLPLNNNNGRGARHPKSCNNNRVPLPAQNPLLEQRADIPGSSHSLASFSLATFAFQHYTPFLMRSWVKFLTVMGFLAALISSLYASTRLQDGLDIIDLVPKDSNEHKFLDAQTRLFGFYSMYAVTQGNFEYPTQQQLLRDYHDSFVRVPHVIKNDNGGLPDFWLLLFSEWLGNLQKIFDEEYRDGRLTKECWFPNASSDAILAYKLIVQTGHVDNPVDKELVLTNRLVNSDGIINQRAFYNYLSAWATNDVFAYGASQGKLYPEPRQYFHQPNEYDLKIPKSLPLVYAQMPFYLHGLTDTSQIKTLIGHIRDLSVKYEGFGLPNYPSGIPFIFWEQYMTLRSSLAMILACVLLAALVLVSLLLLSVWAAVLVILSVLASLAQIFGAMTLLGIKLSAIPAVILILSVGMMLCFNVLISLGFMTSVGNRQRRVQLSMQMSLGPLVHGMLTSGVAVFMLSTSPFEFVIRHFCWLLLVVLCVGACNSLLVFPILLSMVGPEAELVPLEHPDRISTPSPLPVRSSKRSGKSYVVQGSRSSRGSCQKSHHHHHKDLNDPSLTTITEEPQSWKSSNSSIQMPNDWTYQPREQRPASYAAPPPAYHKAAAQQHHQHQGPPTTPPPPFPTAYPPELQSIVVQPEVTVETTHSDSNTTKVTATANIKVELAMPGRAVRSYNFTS

[2] = molecular target: T2, endogenous Ptc protein (Drosophila (endogenous in S2 cells)) (UniProt P18502); test: co-IP; S2 cell lysates, endogenous proteins; immunoprecipitated with mouse anti-Ptc antibody or control mouse IgG; Western blot
T2 sequence: T1 sequence

binding [1]: binds
B1: Flag-tagged Smurf (enzyme, UniProt Q9V853 1-1061)
chain: MNKLDYPRRNGTHKVRITILCARNLARKDLFRLPDPFAKVQVDGTGQVYSTEISKSSLDPKWNAHYDLFLGIGDAITITVWNQRKIHKGSGFLGCVRIPAFNIQSLKGAGFQRLDLGKLSPDDDELVRGQIIISLLSKDGPSSGNPLAIVGPSGDVRGPSEDDSSEDSLPEGWEERRTDNGRVYYVNHATKSTQWDRPRQPGVVGSSHATSPQQRHNTHNGNSGDRQAPAGPTRSTTCTNLMNNGHRSRDLSVTASDERRHSTEILSSVGKENTSPTTPVSATTTPGKKTSSSNSSSAGGRTLEQRPTNEPATPTSSTTSASVRLHSNDNHVKTPKHQTNGHAPPESTPTSPTGQQNYVNGNAQNGSTSGNGSGQAAQPQSASNGWTQEDAATTTSPSTTTSPPRHSQSPPTPNISPPASVTPSANGNVHSPNANSTPAGSGGGSRSYTAATPGQRSQRRSSRQQGEESSTRRRSSRGTRNGGTSGGGGGGGSGQRYASAAIAAANQAARPFLDLPPGYEMRTTQQGQVYFYHIPTGVSTWHDPRIPRDFDTQHLTLDAIGPLPSGWEQRKTASGRVYFVDHNNRTTQFTDPRLSGSILQMIRRGTVPPTSAANAGTPAPPSATPATPSAAAAVPPQATPASNATPTTLTTTTNPPHRIVPDLPQGLLEGADLLPKYRRDLVGKLRALRTELQTMQPQSGHCRLEVSRNEIFEESYRLIMKMRAKDMRKRLMVKFKGEEGLDYGGVAREWLHLLSREMLNPQYGLFQYSRDDHYTLQINPDSGVNPDHLSYFHFVGRTLGIAVFHGHCLDGGFTTPFYKQLLNKPITLGDIEGVDPDLHRSLTWMLESNISGIIESTFSVENNSFGALVVHELKPGGASIPVTEENKREYVKLYVNYRFMRGIEQQFLALQKGFCELIPSHLLRPFDERELELVIGGISSIDVNDWRNNTRLKHCTNETTQVLWFWQVVESYSSEMRARLLQFVTGSSRVPLQGFRALQGSTGAVGPRLFTIHLTADVPTQNLPKAHTCFNRIDLPPYETYQLLCDKLTQAVEETCGFAVE

binding [2]: binds
B2: endogenous Smurf protein (enzyme, UniProt Q9V853 1-1061)
chain: B1 chain
